Measurements reported in paper PMC6435701.
Results are given in words; binding and its absence hold for the method and conditions named. Binding seen in cells or lysates may run through a third protein. A yes stands for co-enrichment or nearness to the bait. Other partners may have been found.

Amino acid sequences for entries named in this document (tags omitted).
UniProt O00429: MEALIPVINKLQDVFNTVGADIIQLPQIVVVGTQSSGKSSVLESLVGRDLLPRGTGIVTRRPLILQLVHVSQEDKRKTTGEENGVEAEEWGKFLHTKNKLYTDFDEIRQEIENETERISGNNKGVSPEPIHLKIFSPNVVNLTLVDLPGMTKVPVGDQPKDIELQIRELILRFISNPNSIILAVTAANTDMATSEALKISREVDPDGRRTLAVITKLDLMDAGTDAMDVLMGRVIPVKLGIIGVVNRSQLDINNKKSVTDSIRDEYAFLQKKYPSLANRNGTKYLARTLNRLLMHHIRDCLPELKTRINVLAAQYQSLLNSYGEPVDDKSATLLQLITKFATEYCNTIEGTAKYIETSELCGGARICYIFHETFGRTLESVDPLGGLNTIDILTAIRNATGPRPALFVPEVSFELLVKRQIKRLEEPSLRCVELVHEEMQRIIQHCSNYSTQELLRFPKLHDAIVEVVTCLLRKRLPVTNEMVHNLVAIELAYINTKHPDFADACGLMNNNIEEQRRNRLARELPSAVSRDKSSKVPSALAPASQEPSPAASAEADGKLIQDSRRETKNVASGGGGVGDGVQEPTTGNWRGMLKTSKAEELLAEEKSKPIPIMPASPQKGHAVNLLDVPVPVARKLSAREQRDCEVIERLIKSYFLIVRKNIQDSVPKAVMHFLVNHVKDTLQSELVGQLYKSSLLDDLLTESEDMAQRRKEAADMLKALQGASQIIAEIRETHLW

How the values were obtained:
[1] = target: Dynamin-related protein 1 (human (endogenous in iPS-derived neurons, fibroblasts, postmortem brain)), O00429; assay: affinity purification with mass spectrometry; 3 mg lysate (10 mM HEPES-NaOH pH 7.9, 150 mM NaCl, 1 mM EGTA, 1% Triton X-100) of neurons derived from HD patient iPS cells, IP with anti-Drp1 antibody overnight, protein A/G beads, LC-MS/MS; hits listed are found in HD and not in normal-subject cells; conditions: remark: other sources report otherwise
[2] = target: Dynamin-related protein 1 (human (endogenous in iPS-derived neurons, fibroblasts, postmortem brain)) (UniProt O00429); assay: as above

Binder	binding [1]	binding [2]
ATPase family AAA domain-containing protein 3A, Q9NVI7-2 1-586 (protein) MSWLFGINKGPKGEGAGPPPPLPPAQPGAEGGGDRGLGDRPAPKDKWSNFDPTGLERAAKAARELEHSRYAKDALNLAQMQEQTLQLEQQSKLKEYEAAVEQLKSEQIRAQAEERRKTLSEETRQHQARAQYQDKLARQRYEDQLKQQQLLNEENLRKQEESVQKQEAMRRATVEREMELRHKNEMLRVEAEARARAKAERENADIIREQIRLKAAEHRQTVLESIRTAGTLFGEGFRAFVTDWDKVTATVAGLTLLAVGVYSAKNATLVAGRFIEARLGKPSLVRETSRITVLEALRHPIQVSRRLLSRPQDALEGVVLSPSLEARVRDIAIATRNTKKNRSLYRNILMYGPPGTGKTLFAKKLALHSGMDYAIMTGGDVAPMGREGVTAMHKLFDWANTSRRGLLLFVDEADAFLRKRATEKISEDLRATLNAFLYRTGQHSNKFMLVLASNQPEQFDWAINDRINEMVHFDLPGQEERERLVRMYFDKYVLKPATEGKQRLKLAQFDYGRKCSEVARLTEGMSGREIAQLAVSWQATAYASEDGVLTEAMMDTRVQDAVQQHQQKMCWLKAEGPGRGDEPSPS	binds	
ATP synthase subunit b, mitochondrial (protein, UniProt P24539 43-256) PVPPLPEYGGKVRYGLIPEEFFQFLYPKTGVTGPYVLGTGLILYALSKEIYVISAETFTALSVLGVMVYGIKKYGPFVADFADKLNEQKLAQLEEAKQASIQHIQNAIDTEKSQQALVQKRHYLFDVQRNNIAMALEVTYRERLYRVYKEVKNRLDYHISVQNMMRRKEQEHMINWVEKHVVQSISTQQEKETIAKCIADLKLLAKKAQAQPVM		binds
ATP synthase subunit f, mitochondrial (protein, UniProt P56134 1-94) MASVGECPAPVPVKDKKLLEVKLGELPSWILMRDFSPSGIFGAFQRGYYRYYNKYINVKKGSISGITMVLACYVLFSYSFSYKHLKHERLRKYH		binds
Thioredoxin-dependent peroxide reductase, mitochondrial (protein, UniProt P30048 62-256) APAVTQHAPYFKGTAVVNGEFKDLSLDDFKGKYLVLFFYPLDFTFVCPTEIVAFSDKANEFHDVNCEVVAVSVDSHFSHLAWINTPRKNGGLGHMNIALLSDLTKQISRDYGVLLEGSGLALRGLFIIDPNGVIKHLSVNDLPVGRSVEETLRLVKAFQYVETHGEVCPANWTPDSPTIKPSPAASKEYFQKVNQ		binds
Transcription factor A, mitochondrial (protein, UniProt Q00059 43-246) SSVLASCPKKPVSSYLRFSKEQLPIFKAQNPDAKTTELIRRIAQRWRELPDSKKKIYQDAYRAEWQVYKEEISRFKEQLTPSQIMSLEKEIMDKHLKRKAMTKKKELTLLGKPKRPRSAYNVYVAERFQEAKGDSPQEKLKTVKENWKNLSDSEKELYIQHAKEDETRYHNEMKSWEEQMIEVGRKDLLRRTIKKQRKYGAEEC		binds
